No constants are given. Whether binding was seen depends on the method and setting. Tags and fused reporters may be left off the sequences shown.
Target: N-terminally Flag-tagged mouse NINJ1 (mouse) (UniProt O70131)
Assay: condition: only co-expressed and co-purified with clone D1 Fab; negative-stain electron microscopy; Flag–NINJ1 co-expressed with clone D1 Fab, complex purified on anti-Flag M2 resin and SEC (peak at 15 ml), about 0.1 mg/ml in SEC buffer, 1% uranyl acetate; both purified

binding: no binding
B1: N-terminally Flag-tagged mouse NINJ1 (natural protein, UniProt O70131 1-152, looked up)
chain: MESGTEEYELNGDLRPGSPGSPDALPPRWGLRNRPINVNHYANKKSAAESMLDIALLMANASQLKAVVEQGNDFAFFVPLVVLISISLVLQIGVGVLLIFLVKYDLNNPAKHAKLDFLNNLATGLVFIIVVVNIFITAFGVQKPVMDVAPRQ
notes: NINJ1 (ninjurin-1), mouse, expressed from pRK-Flag-mNINJ1; Membrane protein solubilised in 1% LMNG / 0.1% CHS; the oligomer size is heterogeneous and no copy number is told; also called Flag–NINJ1; recombinant NINJ1; source: Expi293F cells, transiently transfected, purified (anti-Flag M2 resin, Superose 6 SEC) in LMNG/CHS; not shown: FLAG, N-terminal, kept

Reference: paper PMC10307625, “Inhibiting membrane rupture with NINJ1 antibodies limits tissue injury” (Nature, 2023)
